# Results are given in words; binding and its absence hold for the method and conditions named.
# B1: Smaug DR1 (aa 282-595), ReLo (domain or fragment, UniProt Q23972 282-595)
# chain: AGLTNRSYFLQPSPQLVAGGSSTGSGSCSSSATSSSTASCSSVASSSLCPASGSRSSRTNDWQTIAPPSKQLQNKLAGDWRGNGGGSSSGSINPLCDNLNGITLNELASSQNSLGLSLEGSSSLVNGVVAGAGSMLGIAGGDDHDTSFSKNGTEILDFDPVTADMGEACSLASSSLCGRNGGNPVEDRSQPPPNLQQQLLQPPPYASILMGNVGDQFGEINRWSLDSKIAALKTRRSNSLTTQTISSCSSSSNSSVITVNDNCSNSTENLAQFANKPRSFSLSIEHQRGALMNSGSDTRLDEFKPNYIKFHTRN
# B2: Smaug SAM-PHAT (aa 596-765), ReLo (domain or fragment, UniProt Q23972 596-765)
# chain: VGMSGIGLWLKSLRLHKYIELFKNMTYEEMLLITEDFLQSVGVTKGASHKLALCIDKLKERANILNRVEQELLSGQMELSTAVEELTNIVLTPMKPLESPGPPEENIGLRFLKVIDIVTNTLQQDPYAVQDDETLGVLMWILDRSIHNEAFMNHASQLKDLKFKLSKMKI
# B3: Smaug DR2 (aa 766-999), ReLo (domain or fragment, UniProt Q23972 766-999)
# chain: SMVPKMHHVKPAGVGPNNGNINKPRWNGKTRKCDTKNGSNDRINNRKNSNDMLNFSLNCLPHPLPHHSQQAPPPLPQFDYNGYGGGPSHQPQYKSSSYPSFMGNPQQQPPPPPSSKSHHHPQQMQQMLQQHNHFPALPQQTPPQSHRRSLNNLILVAGGPQQPQQLIFKPGQGVLTNNGSNDNLVLERNQQSQQQQQQRKLSGGVSSAEQQPKKTMAAVVMENLAKFDQHFTLF
# Biological target: T1, Smoothened cytotail (Smo 556-1036), ReLo (Drosophila) (UniProt P91682)
# T1 sequence: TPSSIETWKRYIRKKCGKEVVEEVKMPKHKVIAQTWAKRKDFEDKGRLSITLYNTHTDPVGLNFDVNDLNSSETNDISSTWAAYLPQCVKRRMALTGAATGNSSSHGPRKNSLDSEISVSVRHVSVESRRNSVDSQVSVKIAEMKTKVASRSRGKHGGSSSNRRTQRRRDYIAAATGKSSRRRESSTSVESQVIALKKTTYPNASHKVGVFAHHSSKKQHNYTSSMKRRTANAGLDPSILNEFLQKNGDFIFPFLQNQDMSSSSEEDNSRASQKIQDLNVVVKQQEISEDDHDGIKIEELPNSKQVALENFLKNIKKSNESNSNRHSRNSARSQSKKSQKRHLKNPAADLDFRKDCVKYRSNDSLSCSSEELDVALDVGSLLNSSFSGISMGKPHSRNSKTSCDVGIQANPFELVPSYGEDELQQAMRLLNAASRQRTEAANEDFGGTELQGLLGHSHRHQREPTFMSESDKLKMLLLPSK
# Experiment: ReLo
row,Binder,binding
1,B1,no binding
2,B2,no binding
3,B3,no binding

# Reference: publication doi:10.1101/2023.02.19.529116
